From the supplement of paper PMC10849652
Some of the results follow.

Amino acid sequences for entries named in this document (tags omitted). A change or cut given only in a name is not applied to a line headed by its entry.
UniProt Q9H6N6: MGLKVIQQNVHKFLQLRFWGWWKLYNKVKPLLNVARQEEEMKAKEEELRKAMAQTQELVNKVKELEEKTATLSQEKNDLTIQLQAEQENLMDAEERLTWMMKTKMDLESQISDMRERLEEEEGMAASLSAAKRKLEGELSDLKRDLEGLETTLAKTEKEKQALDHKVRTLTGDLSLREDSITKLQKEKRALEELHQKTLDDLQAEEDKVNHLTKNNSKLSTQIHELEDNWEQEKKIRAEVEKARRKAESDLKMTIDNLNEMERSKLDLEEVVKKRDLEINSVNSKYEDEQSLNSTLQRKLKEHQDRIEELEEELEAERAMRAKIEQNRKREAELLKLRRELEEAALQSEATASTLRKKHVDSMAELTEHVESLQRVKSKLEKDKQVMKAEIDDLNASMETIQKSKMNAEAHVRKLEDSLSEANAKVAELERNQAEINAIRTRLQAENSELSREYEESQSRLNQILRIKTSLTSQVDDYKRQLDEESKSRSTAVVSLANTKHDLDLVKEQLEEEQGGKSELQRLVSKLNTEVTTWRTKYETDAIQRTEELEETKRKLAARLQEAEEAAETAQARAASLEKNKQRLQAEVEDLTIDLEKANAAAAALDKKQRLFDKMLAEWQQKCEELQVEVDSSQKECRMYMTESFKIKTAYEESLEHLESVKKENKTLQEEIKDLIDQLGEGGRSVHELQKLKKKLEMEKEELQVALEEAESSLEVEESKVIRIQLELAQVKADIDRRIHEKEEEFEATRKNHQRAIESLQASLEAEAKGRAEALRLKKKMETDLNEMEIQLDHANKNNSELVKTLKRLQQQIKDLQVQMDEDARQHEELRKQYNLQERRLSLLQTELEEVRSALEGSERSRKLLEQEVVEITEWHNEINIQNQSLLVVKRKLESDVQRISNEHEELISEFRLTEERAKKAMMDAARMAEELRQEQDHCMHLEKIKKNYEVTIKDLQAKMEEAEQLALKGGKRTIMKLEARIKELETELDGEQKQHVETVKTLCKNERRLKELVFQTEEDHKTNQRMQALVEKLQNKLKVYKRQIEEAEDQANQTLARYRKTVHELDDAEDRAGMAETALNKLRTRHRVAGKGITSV
UniProt O94776: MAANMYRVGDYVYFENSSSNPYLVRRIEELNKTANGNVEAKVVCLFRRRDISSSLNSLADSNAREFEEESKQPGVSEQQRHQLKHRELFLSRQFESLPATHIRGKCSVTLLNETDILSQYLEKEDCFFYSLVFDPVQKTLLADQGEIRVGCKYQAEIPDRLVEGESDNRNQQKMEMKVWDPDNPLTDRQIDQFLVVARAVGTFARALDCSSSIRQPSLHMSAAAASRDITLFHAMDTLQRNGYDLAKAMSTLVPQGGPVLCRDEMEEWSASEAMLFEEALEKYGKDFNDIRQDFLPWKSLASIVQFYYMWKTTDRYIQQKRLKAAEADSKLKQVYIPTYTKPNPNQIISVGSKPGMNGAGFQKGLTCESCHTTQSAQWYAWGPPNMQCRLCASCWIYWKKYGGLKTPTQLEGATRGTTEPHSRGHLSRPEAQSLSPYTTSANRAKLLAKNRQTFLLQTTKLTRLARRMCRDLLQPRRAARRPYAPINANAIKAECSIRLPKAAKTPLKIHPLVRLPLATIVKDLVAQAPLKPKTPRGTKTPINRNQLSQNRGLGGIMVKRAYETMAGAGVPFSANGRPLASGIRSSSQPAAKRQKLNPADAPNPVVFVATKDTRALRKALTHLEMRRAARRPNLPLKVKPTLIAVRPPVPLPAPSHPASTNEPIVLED
UniProt O14950, whole entry, looked up: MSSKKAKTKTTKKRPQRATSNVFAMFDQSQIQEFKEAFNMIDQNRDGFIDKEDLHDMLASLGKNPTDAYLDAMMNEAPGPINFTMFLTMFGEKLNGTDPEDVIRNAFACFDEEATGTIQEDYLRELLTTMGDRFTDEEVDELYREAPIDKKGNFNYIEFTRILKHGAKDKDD
UniProt Q6P444: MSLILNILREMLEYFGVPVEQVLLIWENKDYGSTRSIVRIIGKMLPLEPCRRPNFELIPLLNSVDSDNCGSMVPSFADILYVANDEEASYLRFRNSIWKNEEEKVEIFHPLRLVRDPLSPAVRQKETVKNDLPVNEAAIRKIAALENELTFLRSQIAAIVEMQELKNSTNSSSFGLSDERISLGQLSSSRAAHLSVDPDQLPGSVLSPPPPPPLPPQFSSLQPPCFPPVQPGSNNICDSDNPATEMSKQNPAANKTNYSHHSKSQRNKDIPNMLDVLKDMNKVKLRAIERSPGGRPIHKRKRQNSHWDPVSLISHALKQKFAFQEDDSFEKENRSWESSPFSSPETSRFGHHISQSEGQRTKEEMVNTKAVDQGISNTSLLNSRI
UniProt Q9HD23: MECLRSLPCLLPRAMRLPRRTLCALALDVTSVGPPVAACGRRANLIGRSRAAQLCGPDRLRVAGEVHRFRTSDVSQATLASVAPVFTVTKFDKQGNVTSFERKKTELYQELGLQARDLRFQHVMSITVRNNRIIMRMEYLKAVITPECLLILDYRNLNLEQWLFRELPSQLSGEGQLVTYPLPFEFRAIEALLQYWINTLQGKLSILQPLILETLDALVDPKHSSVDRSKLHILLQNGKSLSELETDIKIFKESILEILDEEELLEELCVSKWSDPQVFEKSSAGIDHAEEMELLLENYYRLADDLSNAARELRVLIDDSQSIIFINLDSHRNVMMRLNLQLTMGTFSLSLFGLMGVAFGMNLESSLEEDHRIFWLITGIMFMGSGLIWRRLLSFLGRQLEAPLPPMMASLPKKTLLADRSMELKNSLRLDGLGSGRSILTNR
UniProt P03923, whole entry, looked up: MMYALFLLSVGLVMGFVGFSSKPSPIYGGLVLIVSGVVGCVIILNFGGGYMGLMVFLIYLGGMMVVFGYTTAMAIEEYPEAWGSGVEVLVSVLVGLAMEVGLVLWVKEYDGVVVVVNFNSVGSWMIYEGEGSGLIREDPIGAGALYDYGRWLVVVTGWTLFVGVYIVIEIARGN
UniProt Q9ULH7: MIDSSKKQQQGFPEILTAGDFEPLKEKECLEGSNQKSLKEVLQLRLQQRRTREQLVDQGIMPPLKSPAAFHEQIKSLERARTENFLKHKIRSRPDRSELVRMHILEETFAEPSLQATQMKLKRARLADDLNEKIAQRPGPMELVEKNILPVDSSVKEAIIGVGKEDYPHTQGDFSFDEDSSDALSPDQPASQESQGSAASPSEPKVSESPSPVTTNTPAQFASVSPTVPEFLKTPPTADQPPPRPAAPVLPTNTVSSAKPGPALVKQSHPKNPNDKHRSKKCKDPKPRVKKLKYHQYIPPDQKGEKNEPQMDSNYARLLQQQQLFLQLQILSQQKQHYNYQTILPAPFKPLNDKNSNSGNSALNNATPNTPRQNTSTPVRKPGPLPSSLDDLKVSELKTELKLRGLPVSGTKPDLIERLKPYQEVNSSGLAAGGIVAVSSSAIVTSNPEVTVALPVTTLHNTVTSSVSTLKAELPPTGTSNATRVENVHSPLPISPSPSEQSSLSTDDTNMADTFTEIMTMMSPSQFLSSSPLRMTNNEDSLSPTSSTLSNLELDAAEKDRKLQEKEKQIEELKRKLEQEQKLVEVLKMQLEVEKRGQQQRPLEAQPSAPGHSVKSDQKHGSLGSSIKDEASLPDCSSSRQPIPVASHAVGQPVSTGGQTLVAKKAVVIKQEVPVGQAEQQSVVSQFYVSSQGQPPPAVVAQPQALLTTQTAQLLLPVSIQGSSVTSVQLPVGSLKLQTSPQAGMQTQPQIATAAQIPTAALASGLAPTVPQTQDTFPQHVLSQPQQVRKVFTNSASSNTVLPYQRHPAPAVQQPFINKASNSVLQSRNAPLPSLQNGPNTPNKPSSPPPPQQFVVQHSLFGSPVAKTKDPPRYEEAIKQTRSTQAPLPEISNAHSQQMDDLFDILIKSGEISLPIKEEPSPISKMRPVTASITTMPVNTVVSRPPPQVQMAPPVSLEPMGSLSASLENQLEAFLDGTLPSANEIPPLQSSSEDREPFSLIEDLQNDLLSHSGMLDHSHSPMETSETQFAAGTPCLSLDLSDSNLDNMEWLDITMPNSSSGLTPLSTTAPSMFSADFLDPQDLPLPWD
UniProt Q9BUK6: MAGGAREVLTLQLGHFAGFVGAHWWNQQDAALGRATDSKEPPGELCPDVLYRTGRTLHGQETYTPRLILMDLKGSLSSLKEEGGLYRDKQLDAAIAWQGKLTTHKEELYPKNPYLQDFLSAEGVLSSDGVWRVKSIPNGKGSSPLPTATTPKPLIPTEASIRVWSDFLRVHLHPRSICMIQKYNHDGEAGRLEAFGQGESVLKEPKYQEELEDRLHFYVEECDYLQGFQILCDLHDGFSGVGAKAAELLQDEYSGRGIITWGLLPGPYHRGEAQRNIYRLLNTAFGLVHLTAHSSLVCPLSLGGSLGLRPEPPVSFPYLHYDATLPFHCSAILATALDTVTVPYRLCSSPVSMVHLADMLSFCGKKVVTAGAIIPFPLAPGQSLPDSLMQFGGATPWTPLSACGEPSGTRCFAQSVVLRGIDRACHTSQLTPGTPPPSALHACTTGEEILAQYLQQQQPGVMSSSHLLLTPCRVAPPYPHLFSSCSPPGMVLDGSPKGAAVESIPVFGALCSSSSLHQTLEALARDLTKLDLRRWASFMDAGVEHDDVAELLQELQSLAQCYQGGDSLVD
UniProt Q2M296: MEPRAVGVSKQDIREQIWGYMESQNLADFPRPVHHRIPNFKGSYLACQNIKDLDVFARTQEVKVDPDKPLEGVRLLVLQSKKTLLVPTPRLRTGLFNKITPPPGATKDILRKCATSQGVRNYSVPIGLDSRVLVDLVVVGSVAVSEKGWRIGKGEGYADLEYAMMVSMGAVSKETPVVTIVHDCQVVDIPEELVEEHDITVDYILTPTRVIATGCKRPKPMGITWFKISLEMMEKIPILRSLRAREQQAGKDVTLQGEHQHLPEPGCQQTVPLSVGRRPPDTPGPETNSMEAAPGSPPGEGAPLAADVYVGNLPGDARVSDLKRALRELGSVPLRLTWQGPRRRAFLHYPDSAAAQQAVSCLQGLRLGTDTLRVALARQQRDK
UniProt G3V1V0: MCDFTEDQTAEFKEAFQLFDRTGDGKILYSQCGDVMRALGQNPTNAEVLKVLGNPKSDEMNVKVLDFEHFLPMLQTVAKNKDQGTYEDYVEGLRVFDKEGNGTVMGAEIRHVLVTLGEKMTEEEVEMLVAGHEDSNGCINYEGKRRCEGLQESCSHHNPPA
UniProt Q13614, whole entry, looked up: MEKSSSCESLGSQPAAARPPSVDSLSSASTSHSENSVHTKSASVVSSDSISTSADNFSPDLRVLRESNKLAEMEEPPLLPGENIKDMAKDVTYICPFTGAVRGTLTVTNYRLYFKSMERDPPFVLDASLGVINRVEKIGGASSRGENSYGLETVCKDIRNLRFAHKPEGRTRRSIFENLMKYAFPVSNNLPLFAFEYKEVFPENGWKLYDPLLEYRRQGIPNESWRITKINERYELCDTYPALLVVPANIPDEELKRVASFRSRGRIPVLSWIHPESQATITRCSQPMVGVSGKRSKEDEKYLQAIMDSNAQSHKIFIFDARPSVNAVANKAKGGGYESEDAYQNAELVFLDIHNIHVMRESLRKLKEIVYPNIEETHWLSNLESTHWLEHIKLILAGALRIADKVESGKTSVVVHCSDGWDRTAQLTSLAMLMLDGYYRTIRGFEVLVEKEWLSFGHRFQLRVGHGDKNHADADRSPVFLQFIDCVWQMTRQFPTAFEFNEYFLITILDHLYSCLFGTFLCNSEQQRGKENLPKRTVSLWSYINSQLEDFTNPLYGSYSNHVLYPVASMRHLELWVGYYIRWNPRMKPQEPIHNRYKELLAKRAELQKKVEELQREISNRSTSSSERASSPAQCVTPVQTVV
UniProt P03928: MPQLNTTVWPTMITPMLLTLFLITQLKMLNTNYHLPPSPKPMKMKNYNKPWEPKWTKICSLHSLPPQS
UniProt P03915, whole entry, looked up: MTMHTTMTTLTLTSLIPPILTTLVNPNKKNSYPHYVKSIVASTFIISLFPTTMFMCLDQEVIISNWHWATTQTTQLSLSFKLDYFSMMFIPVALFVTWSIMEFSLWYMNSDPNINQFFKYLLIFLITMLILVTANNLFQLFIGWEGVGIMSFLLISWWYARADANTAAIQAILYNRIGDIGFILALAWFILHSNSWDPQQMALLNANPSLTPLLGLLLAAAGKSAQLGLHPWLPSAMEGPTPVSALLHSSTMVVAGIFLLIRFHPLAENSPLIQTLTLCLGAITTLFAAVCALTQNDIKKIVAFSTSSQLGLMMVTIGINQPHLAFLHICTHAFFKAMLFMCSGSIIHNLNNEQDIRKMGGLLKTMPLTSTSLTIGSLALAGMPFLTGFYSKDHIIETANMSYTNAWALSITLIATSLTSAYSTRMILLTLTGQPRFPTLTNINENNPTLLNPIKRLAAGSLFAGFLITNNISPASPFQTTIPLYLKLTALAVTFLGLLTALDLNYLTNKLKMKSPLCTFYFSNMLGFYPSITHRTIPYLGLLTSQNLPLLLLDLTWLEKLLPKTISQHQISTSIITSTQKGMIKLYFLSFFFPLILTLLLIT

Legend:
Assay in all cases: log2 fold change, soluble protein after heating vs DMSO (PISA); higher = thermal stabilisation; K562 cells, 10 uM, 30 min; active = over 0.2 and 3.5 SD of the protein, either way, in both replicates (recomputed)
[1] = compound: NC(=O)Nc1cc(-c2cccc(F)c2)sc1C(=O)N[C@H]1CCCNC1
How it was run: (§1)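 Soluble protein was defined as the supernatant after 21,000xg for 90 min. It came from K562 cells at 2×10^6 cells/mL given 10 μM compound for 30 min, heated in aliquots for 3 min across 48°C-58°C, pooled, and extracted in PBS with 0.5% NP-40 at 4°C, and was quantified by TMTpro 16plex LC-MS/MS with equalised channel sums. Thermal stability against control samples, from duplicates, is reported as log2 fold change.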

[2] = compound: NC(=O)c1cnc(N[C@@H]2CCCC[C@@H]2N)nc1Nc1cccc(-n2nccn2)c1
How it was run: as §1

[3] = compound: NC1(c2ccc(-c3nc4ccn5c(=O)[nH]nc5c4cc3-c3ccccc3)cc2)CCC1
How it was run: as §1

[4] = compound: NCC(=O)Nc1ccc(-n2nc(C(F)(F)F)cc2-c2ccc3c(ccc4ccccc43)c2)cc1
How it was run: as §1

entinostat = compound: Nc1ccccc1NC(=O)c1ccc(CNC(=O)OCc2cccnc2)cc1 [entinostat]
How it was run: as §1

vorinostat = compound: O=C(CCCCCCC(=O)Nc1ccccc1)NO [vorinostat]
How it was run: as §1

silmitasertib = compound: O=C(O)c1ccc2c(c1)nc(Nc1cccc(Cl)c1)c1ccncc12 [silmitasertib]
How it was run: as §1

citarinostat = compound: O=C(CCCCCCNC(=O)c1cnc(N(c2ccccc2)c2ccccc2Cl)nc1)NO [citarinostat]
How it was run: as §1

[5] = compound: O=C1NC(=O)C(c2cnc3ccccn23)=C1c1cn2c3c(cc(F)cc13)CN(C(=O)N1CCCCC1)CC2
How it was run: as §1

[6] = compound: c1cc(OCCN2CCCCC2)cc(-c2n[nH]c3ccc(-c4nnc[nH]4)cc23)c1
How it was run: as §1

| Target | log2 fold change [1] | log2 fold change [2] | log2 fold change [3] | log2 fold change [4] | log2 fold change (entinostat) | log2 fold change (vorinostat) | log2 fold change (silmitasertib) | log2 fold change (citarinostat) | log2 fold change [5] | log2 fold change [6] |
| --- | --- | --- | --- | --- | --- | --- | --- | --- | --- | --- |
| MYH16 (UniProt Q9H6N6) | inactive: 0.467 | inactive: 0.051 | inactive: -0.057 | inactive: 0.051 | inactive: 0.289 | inactive: 0.291 | inactive: -0.044 | – | – | – |
| MSRB2 (UniProt Q9Y3D2) | inactive: -0.05 | inactive: 0.012 | inactive: 0.079 | inactive: 0.235 | inactive: -0.014 | inactive: -0.098 | inactive: -0.077 | inactive: 0.131 | inactive: 0.056 | inactive: 0.161 |
| MTA2 (UniProt O94776) | inactive: 0.04 | inactive: -0.125 | inactive: -0.084 | inactive: -0.032 | inactive: 0.098 | inactive: -0.085 | inactive: -0.027 | inactive: 0.031 | inactive: 0.004 | inactive: -0.071 |
| MUL1 (UniProt Q969V5) | inactive: -0.029 | inactive: -0.041 | active: 0.648 | inactive: -0.024 | inactive: -0.007 | inactive: 0.086 | inactive: -0.018 | inactive: -0.002 | inactive: -0.021 | inactive: -0.049 |
| MYL12B (UniProt O14950) | inactive: 0.09 | inactive: 0.084 | inactive: -0.013 | inactive: 0.055 | inactive: 0.029 | inactive: -0.004 | inactive: -0.037 | inactive: 0.045 | inactive: -0.042 | inactive: 0.026 |
| MTFR2 (UniProt Q6P444) | inactive: 0.026 | inactive: 0.055 | inactive: 0.051 | inactive: 0.044 | inactive: 0.045 | – | inactive: -0.17 | inactive: 0.076 | inactive: 0.189 | inactive: -0.01 |
| MT-ND4 (UniProt P03905) | inactive: 0.052 | inactive: 0.038 | inactive: -0.046 | inactive: -0.074 | inactive: 0.099 | inactive: 0.261 | inactive: -0.011 | inactive: 0.198 | inactive: 0.088 | inactive: -0.057 |
| MRS2 (UniProt Q9HD23) | inactive: -0.029 | inactive: -0.01 | inactive: -0.039 | inactive: -0.031 | inactive: -0.032 | inactive: -0.021 | inactive: 0 | inactive: 0.031 | inactive: -0.009 | inactive: -0.021 |
| MRPS26 (UniProt Q9BYN8) | inactive: -0.067 | inactive: -0.022 | inactive: -0.088 | inactive: 0.092 | inactive: 0.022 | inactive: 0.171 | inactive: -0.044 | inactive: -0.04 | inactive: -0.039 | inactive: 0 |
| MT-CO1 (UniProt P00395) | inactive: -0.035 | inactive: 0.21 | inactive: -0.06 | inactive: 0.016 | inactive: -0.025 | – | inactive: -0.03 | inactive: 0.037 | – | inactive: -0.031 |
| MT-ND6 (UniProt P03923) | inactive: -0.068 | inactive: -0.114 | inactive: -0.064 | inactive: -0.076 | inactive: 0.045 | – | inactive: -0.02 | inactive: -0.011 | – | inactive: -0.083 |
| MRPS35 (UniProt P82673) | inactive: 0.035 | inactive: -0.07 | inactive: -0.082 | inactive: 0.012 | inactive: -0.027 | inactive: 0.088 | inactive: -0.119 | inactive: -0.011 | inactive: -0.033 | inactive: -0.03 |
| MRTFB isoform 5 (UniProt Q9ULH7) | inactive: 0.042 | inactive: -0.063 | inactive: -0.004 | inactive: -0.018 | inactive: -0.011 | inactive: -0.019 | inactive: -0.064 | inactive: 0.013 | inactive: -0.006 | inactive: 0.004 |
| MSTO1 (UniProt Q9BUK6) | inactive: 0.013 | inactive: 0.015 | inactive: -0.144 | inactive: -0.059 | inactive: -0.005 | inactive: 0.053 | inactive: -0.015 | inactive: 0.08 | inactive: -0.045 | inactive: 0.017 |
| MRPS9 (UniProt P82933) | inactive: -0.03 | inactive: -0.011 | inactive: -0.117 | inactive: 0.018 | inactive: 0.008 | inactive: 0.167 | inactive: -0.083 | inactive: 0.035 | inactive: -0.019 | inactive: -0.081 |
| MTHFSD isoform 3 (UniProt Q2M296) | inactive: -0.404 | inactive: -0.051 | inactive: 0.339 | inactive: 0.131 | inactive: 0.201 | inactive: 0.265 | inactive: 0.012 | – | – | – |
| MRPS21 (UniProt P82921) | inactive: -0.009 | inactive: 0.137 | inactive: -0.003 | inactive: 0.095 | inactive: -0.004 | – | inactive: -0.156 | inactive: 0.07 | inactive: 0.024 | inactive: -0.05 |
| MTFR1 (UniProt Q15390) | inactive: -0.027 | inactive: -0.033 | inactive: -0.116 | inactive: -0.039 | inactive: 0.016 | inactive: 0.131 | inactive: 0.061 | inactive: 0.065 | inactive: -0.005 | inactive: 0.024 |
| MT-ND1 (UniProt P03886) | inactive: 0.166 | inactive: 0.244 | inactive: -0.004 | inactive: 0.289 | inactive: -0.051 | – | inactive: 0.039 | inactive: 0.05 | inactive: 0.1 | inactive: -0.075 |
| MTMR6 (UniProt Q9Y217) | inactive: -0.064 | inactive: 0.034 | inactive: -0.076 | inactive: 0.027 | inactive: 0.006 | inactive: 0.101 | inactive: 0.126 | inactive: 0.085 | inactive: 0.059 | inactive: 0.051 |
| MYL6 (UniProt G3V1V0) | inactive: 0.138 | inactive: -0.004 | inactive: 0.306 | inactive: -0.038 | inactive: 0.052 | – | inactive: 0.087 | inactive: -0.018 | – | inactive: -0.06 |
| MTMR2 (UniProt Q13614) | inactive: -0.012 | inactive: -0.014 | inactive: -0.026 | inactive: -0.055 | inactive: -0.011 | inactive: 0.009 | inactive: 0.03 | inactive: 0.033 | inactive: -0.009 | inactive: -0.102 |
| MRPS6 (UniProt P82932) | inactive: 0.023 | inactive: 0.009 | inactive: -0.133 | inactive: 0.003 | inactive: 0.03 | inactive: 0.108 | inactive: -0.036 | inactive: 0.079 | inactive: -0.042 | inactive: -0.031 |
| MTMR3 (UniProt Q13615) | inactive: 0.072 | inactive: 0.03 | inactive: -0.11 | inactive: -0.139 | inactive: -0.062 | inactive: -0.029 | inactive: 0.002 | inactive: 0.087 | inactive: -0.009 | inactive: 0.009 |
| MT-CO3 (UniProt P00414) | inactive: -0.002 | inactive: -0.049 | inactive: -0.061 | inactive: -0.119 | inactive: -0.161 | – | inactive: -0.114 | – | – | – |
| MXRA8 isoform 2 (UniProt Q9BRK3) | inactive: 0.105 | inactive: -0.067 | inactive: -0.162 | inactive: -0.05 | inactive: 0.022 | – | inactive: 0.152 | – | inactive: 0.103 | – |
| MT-ATP8 (UniProt P03928) | inactive: 0.213 | inactive: -0.107 | inactive: -0.028 | – | inactive: -0.113 | inactive: -0.031 | inactive: 0.004 | inactive: -0.154 | inactive: -0.316 | inactive: -0.019 |
| MT-ND5 (UniProt P03915) | inactive: -0.068 | inactive: 0.012 | inactive: 0.038 | inactive: -0.003 | inactive: -0.056 | inactive: 0.075 | inactive: 0.058 | inactive: 0.053 | inactive: 0.015 | inactive: -0.066 |
| MRPS33 (UniProt Q9Y291) | inactive: 0.019 | inactive: 0.02 | inactive: -0.032 | inactive: 0.046 | inactive: 0 | inactive: 0.035 | inactive: -0.066 | inactive: 0.039 | inactive: 0.016 | inactive: -0.052 |

Individual results from above:
In log2 fold change [4], MTMR6 (UniProt Q9Y217) has the entry inactive: 0.027
In log2 fold change (vorinostat), MT-ATP8 (UniProt P03928) has the entry inactive: -0.031
